Several values for one entry are separate records, joined by “and”; a condition that tells them apart may be missing. Identical values can stand only once. This is one part of the list. Further columns of the screen follow, without active or inactive calls. The list favours compounds with an active or inconclusive main result. Potencies come from curve fits of mixed quality, noted in brackets.

The assay in a line: Cell signaling CRE-BLA (Fsk stim). The settings on record: CHO CRE-bla reporter (cAMP response element driving beta-lactamase), forskolin EC10, beta-lactamase ratio; measured here: 460 nm blue channel. Summed up: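 CRE-bla CHO cells stimulated with EC10 NKH 477 (water-soluble forskolin) and compound titrations, 3 h at 37C; beta-lactamase read with CCF4 after 2 h at room temperature. Activity from 460/530 nm emission ratio, AC50 values for positive or negative modulation.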
`Cn1c(=O)c2c(nc(CN3CCCCC3)n2CCc2ccccc2)n(C)c1=O`: the AC50 (as a rule, the concentration giving half of the maximal activity seen) is 20 µM [rising, single point].

As for `COc1ccc(OC)c(C2C(C(C)=O)=C(O)C(=O)N2c2ccc(O)cc2)c1` (stereo not drawn), the AC50 was 0.1 µM [rising, full curve, poor fit].

For the compound `COCCNC(=O)CSc1nc2ccc(N3CCOCC3)cc2c(=O)n1CCc1ccccc1`, the AC50 is 10 µM [rising, single point].

On to `CCOC(=O)c1sc(/N=C/Nc2nc(C)c(C(=O)OCC)s2)nc1C`, for which the concentration at half-maximal activity (AC50) is 5.01 µM [rising, single point].

Regarding `Cc1ccc2cc(CCNC(=O)C(C)(C)C)c(=O)[nH]c2c1`, the AC50 was 10 µM [rising, partial curve].

For `COc1ncc2nc(-c3ccc(F)cc3)c(=O)n(C)c2n1`, the AC50 was 2 µM [rising, partial curve, poor fit].

As to `COC(=O)[C@@]1(Cc2ccc(F)cc2)[C@H]2c3cc(C(=O)N(C)C)n(Cc4ccsc4Br)c3C[C@H]2CN1C(=O)c1ccccc1`, the AC50 was 15.8 µM [rising, partial curve].

As for `Cc1noc(C)c1-c1nccc(N2CCNCC2)n1`, the AC50 is 7.94 µM [rising, partial curve].

For the compound `COC(=O)c1ccc(C(NC(=O)c2ccco2)[C@]2(C)C[C@H]2C2CCCCC2)cc1` (stereo partly drawn), the AC50 was 5.01 µM [falling, single point].

As to `CCOC(=O)c1nn(-c2c(C)n(C)n(-c3ccccc3)c2=O)cc1O`, the half-maximal activity concentration (AC50) is 25.1 µM [falling, partial curve].

Consider `O=C(OCC(=O)N1CCN(c2ccccc2)CC1)c1ccc2ncsc2c1`, for which the AC50 is 10 µM [rising, single point].

As to `O=c1ccnc(SCc2ccccc2Cl)[nH]1`, the AC50 is 6.31 µM [rising, single point].

For the compound `CC(=O)c1c(COC(=O)c2cccnc2)nc2ccccc2[n+]1[O-]`, the AC50 is 10 µM [rising, single point].

Take `CCCCCn1c(=O)[nH]c2c(c1=O)CCC2`: the AC50 is 0.126 µM [falling, single point].

With `O=c1c(-c2ccc(Cl)cc2)nc2cnc(Nc3ccccc3)nc2n1C[C@H]1CCCO1`, the AC50 is 10 µM [rising, partial curve].

As for `Cc1csc(NC(=O)c2cc3c(s2)CCC3)n1`, the half-maximal activity concentration (AC50) is 5.01 µM [falling, single point].

Turning to `CN(C)/C=C1/C(=O)Nc2ccccc21`, the concentration at half-maximal activity (AC50) is 0.00316 µM [falling, full curve, poor fit].

Regarding `COc1ccc(-c2nnc3ccc(SC(C(C)=O)C(C)=O)nn23)cc1OC`, the AC50 was 7.94 µM [rising, partial curve].

On to `CCn1c(-c2ccc(N(C)C)cc2)nc2ccccc21`, for which the AC50 is 10 µM [rising, single point].

On to `Cc1cc2ccccc2c(=O)n1CC(=O)NCC(=O)N1CCN(c2cccc(Cl)c2)CC1`, for which the concentration at half-maximal activity (AC50) is 0.126 µM [falling, full curve].

As to `O=S(=O)(c1ccc2c(c1)OCCO2)N1CCN(c2cccc(Cl)c2)CC1`, the AC50 is 25.1 µM [falling, single point].

Regarding `Cc1sc(NC(=O)c2ccco2)nc1-c1ccc2c(c1)CC(C)N2C(=O)C1CC1` (stereo not drawn), the AC50 was 25.1 µM [falling, single point].

As for `O=C(CSc1nnnn1C1CCCC1)c1ccc2c(c1)OCCO2`, the AC50 is 5.01 µM [falling, single point].

Turning to `Cc1ccc(-n2ncc3c(=O)[nH]c(SC(C)C)nc32)cc1`, the AC50 is 2 µM [rising, full curve].

As to `O=c1c(-c2ccccc2)nc2cncnc2n1Cc1ccc(F)cc1`, the AC50 was 10 µM [rising, partial curve].

As to `CC1CN(C(=O)c2cccc(C(=O)N3CC(C)OC(C)C3)c2)CC(C)O1` (stereo not drawn), the AC50 was 0.631 µM [falling, full curve].

Turning to `N#Cc1c2n(c3c(=O)n(Cc4ccc(Cl)cc4)cnc13)CCCCC2`, the half-maximal activity concentration (AC50) is 2 µM [rising, full curve].

Turning to `N#CC1=C(N)N=C(SCc2ccccc2)C(C(N)=O)C12CCCCC2` (stereo not drawn), the AC50 is 0.398 µM [falling, partial curve].

Consider `O=C(OC1CCOC1=O)c1ccc(-c2nc3ccccc3s2)s1` (stereo not drawn), for which the AC50 is 12.6 µM [rising, single point].

Consider `CN(Cc1ccccc1)c1nc2c(c(=O)[nH]c(=O)n2C)n1CCSc1nc2ccccc2[nH]1`, for which the AC50 was 2.51 µM [rising, partial curve].

Consider `COCCCn1c(-c2ccco2)nc2ccccc2c1=O`, for which the AC50 is 12.6 µM [rising, partial curve].

Regarding `O=C(OCC#CCSc1nnc(-c2ccncc2)o1)c1cccs1`, the AC50 is 0.398 µM [rising, partial curve, poor fit].

As to `O=C(Nc1ccc(S(=O)(=O)Nc2cnc3ccccc3n2)cc1)c1ccc(Br)o1`, the AC50 is 3.98 µM [rising, full curve].

With `COc1ccccc1C(=O)N(Cc1nc(-c2ccc(Cl)cc2)no1)C(C)C`, the concentration at half-maximal activity (AC50) was 15.8 µM [falling, partial curve].

In the case of `Cc1cc(C)n2nc(SCC3COc4ccccc4O3)nc2n1` (stereo not drawn), the AC50 is 12.6 µM [rising, single point].

On to `COc1ccc(-c2cc(C(F)(F)F)n3ncc(C(=O)NCc4ccco4)c3n2)cc1`, for which the AC50 is 12.6 µM [rising, partial curve].

Take `COc1ccc(-c2oc3ncn(CCN4CCOCC4)c(=N)c3c2-c2ccc(OC)cc2)cc1`: the AC50 was 0.501 µM [rising, partial curve].

With `O=c1cc(-c2ccc(O)c(O)c2)oc2cc(O)cc(O)c12`, the AC50 was 12.6 µM [falling, single point] and 7.94 µM [falling, partial curve].

On to `Cc1ccc(-c2nc(C#N)c(NCc3ccco3)o2)cc1`, for which the AC50 was 15.8 µM [rising, single point].

For the compound `CCCCS(=O)(=O)/C=C\C=C/S(=O)(=O)CCCC`, the AC50 is 1.58 µM [falling, full curve].

As for `CN(C)c1ccc(-c2cc(NCc3ccccc3)ncn2)cc1`, the AC50 is 5.01 µM [rising, partial curve].

On to `COc1ccc(-n2nc(C(=O)NCC(=O)NCC3CCCO3)c3ccccc3c2=O)cc1` (stereo not drawn), for which the AC50 is 3.16 µM [falling, partial curve, poor fit].

In the case of `Cc1ccccc1S(=O)(=O)NC1OC(=O)C(Cl)=C1Cl` (stereo not drawn), the AC50 is 0.0794 µM [falling, partial curve, poor fit].

(Values after PubChem BioAssay AID662 (National Center for Advancing Translational Sciences (NCATS), 2007).)
